Source: PubChem BioAssay AID652272 (Drosophila RNAi Screening Center, 2013)

Assay: 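Genome-wide knock-down search for components of Hedgehog signalling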 (primary screen)
System: Drosophila clone 8 (Cl8) cells
Reagents: long dsRNA against Drosophila genes
Measurement: 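Plate reader light from a firefly reporter under a ptc promoter fragment that responds to Hedgehog, with Renilla light as transfection reference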
Direction: firefly Hh reporter signal: higher = more ptc reporter light; Renilla reference signal: higher = more Renilla control light
Rule for the call: 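Called a hit if the two-replicate mean z-score lies below -2 or above +3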
Meaning of the calls: active = hit: reporter lowered or raised; inactive = not a hit
The screen tested about 21,000 reagents; below is an unselected part of those with a known target gene and a result. Of all reagents, 503 (2.4%) were called active. 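Raw plate light values, not normalised; calls rest on replicate z-scores that were not deposited; hits include reporter decreases as well as increases.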 Unmarked entries are inactive. Names joined by + are all predicted targets of the reagent. No sequences are given here. The record does not give: the amount of reagent, the time to read-out.

target gene	DRSC id	firefly Hh reporter signal, replicate 1	firefly Hh reporter signal, replicate 2	firefly Hh reporter signal, replicate 3	Renilla reference signal, replicate 1	Renilla reference signal, replicate 2
RpL8 (Ribosomal protein L8)	DRSC08532	27035 (active)	16301		1328	2212
RpL8 (Ribosomal protein L8)	DRSC08695	23320 (active)	18298		1444	2240
CG42535	DRSC09041	91235	2.66e5		2475	10469
RpS27A (Ribosomal protein S27A)	DRSC03421	60244 (active)	30906		2550	4000
insc (inscuteable)	DRSC04695	1.30e5	55408		3357	5757
CG43064	DRSC09133	89636	2.04e5		2539	8545
Cyp313a2 (Cytochrome P450 313a2)	DRSC16625	62880	1.09e5		2113	3082
DCX-EMAP	DRSC10012	85113			1435	2823
DCX-EMAP	DRSC10013	46768			723	1387
Peritrophin-15b	DRSC02266	1.07e5	79196		2388	7525
CG2811	DRSC04318	67857	68483		1760	4762
CG12017	DRSC08225	92480	39764		3491	3328
CG14402	DRSC02386	1.12e5	37381		2996	3660
pelo (pelota)	DRSC03588	63948	47542		2672	2096
Ipk1 (Inositol phosphate kinase 1)	DRSC04235	1.06e5	72807		3911	2660
Ipk1 (Inositol phosphate kinase 1)	DRSC04236	1.02e5	61873		2517	5521
Ipk1 (Inositol phosphate kinase 1)	DRSC04237	1.08e5	45699		2717	4346
CG4045	DRSC18518	1.47e5	1.08e5		3395	3674
Prp4k (Pre-mRNA processing factor 4 kinase)	DRSC08144	62665	40055		3368	2243
CG1208	DRSC12190	81827	44193		3996	2180
CG7341	DRSC10818	67570	54489		2732	1852
CG32762	DRSC18298	1.21e5	5.92e5	2.82e5	3427	4272
CG1724	DRSC20548	64258	1.82e5		2050	8088
CG14054	DRSC17909	1.07e5	2.81e5		4432	10480
CG42323	DRSC19629	91332	3.39e5		2310	13604
CG18131	DRSC00517	1.11e5	56281		2976	1601
CG5541	DRSC19946	1.74e5	1.18e5		3981	3041
LSm3 (Like Sm 3)	DRSC15920	5.22e5	1.12e5		33713	3912
Art4 (Arginine methyltransferase 4)	DRSC15779	72681	1.28e5		2439	3180
sPLA2 (secretory Phospholipase A2)	DRSC06041	1.23e5	69475		3196	6600
COX3 (retired record)	DRSC21279	72442	1.87e5		1421	7904
CG3529	DRSC10369	87696	42161		4211	2039
CG13989	DRSC02321	1.14e5	59649		3051	5798
tun (tungus)	DRSC05592	1.32e5	3.19e5		3320	14211
tun (tungus)	DRSC07127	1.20e5	1.04e5		5475	4917
CG32246	DRSC08115	89753	1.31e5		1731	5680
Srp14 (Signal recognition particle 14)	DRSC15797	6.61e5	1.10e5		36168	2914
lncRNA:CR32661 + lncRNA:CR43157	DRSC19794	66402	2.39e5		1480	8453
Cdc50 (Cell division cycle 50)	DRSC20224	59461	1.98e5		1516	8146
PIG-N (Phosphatidylinositol glycan anchor biosynthesis class N)	DRSC06837	53811	61778		1411	5464
CG31204	DRSC15106	84604	1.70e5		1314	6925
Srp68 (Signal recognition particle 68)	DRSC10475	90252	67235		4170	3180
CG12496	DRSC18602	41403	2.32e5		1120	8608
Pex23 (Peroxin 23)	DRSC10323	1.08e5	1.01e5		3867	3320
Pex23 (Peroxin 23)	DRSC10645	76565	96272		2620	2730
CG14658	DRSC12244	50508	78000		1220	2776
DENR (Density regulated protein)	DRSC20151	85963	76057		2156	2018
CG8907	DRSC16453	1.09e5	80789		4393	3356
fiz (fezzik)	DRSC20188	1.76e5	1.20e5		4117	3367
Wdr59 (WD repeat domain 59)	DRSC02771	1.15e5	1.17e5		4914	5080
CG12836	DRSC06182	79376	50633		1735	4524
CG15643	DRSC19679	51942	2.00e5		1235	8176
ninaB (neither inactivation nor afterpotential B)	DRSC16807	66327	79411		1492	1930
Adgf-A2 (Adenosine deaminase-related growth factor A2)	DRSC09507	1.77e5			3880	
Naa60 (N(alpha)-acetyltransferase 60)	DRSC10301	31570	39814	52496	4092	3560
CG13947	DRSC00365	1.70e5	1.14e5		4272	2850
CG7943	DRSC16351	81875	83403		2304	2437

Limited to “Renilla reference signal, replicate 2” (4 entries from above):
CG42323 [DRSC19629] = 13604
CG18131 [DRSC00517] = 1601
CG5541 [DRSC19946] = 3041
LSm3 (Like Sm 3) [DRSC15920] = 3912
